# Assay results taken from the supplement of paper PMC8728848.
# This is one part of the list.
# Tests used:
# Test in all cases: glycan array binding signal (z-score within array); higher = stronger binding
# Settings in all cases: glycan notation: IUPAC condensed, linker removed
# [1] = target: GlcNAc(a1-3)Gal(b1-4)GlcNAc
# Summary of the method: (§1)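 Glycan array data came from 3228 arrays in the Consortium for Functional Glycomics database, and only arrays with an available protein sequence were kept. Glycan names were put into IUPAC-condensed notation, and columns mapping to the same glycan were averaged. The binding signal is a within-array Z-score, averaged across arrays of one protein sequence run at different concentrations or buffers and across linkers. A negative Z-score can be read as non-binding.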
# [2] = target: GlcNAc(a1-4)Gal(b1-3)GlcNAc
# Summary of the method: as §1
# [3] = target: GlcNAc(a1-4)Gal(b1-4)GalNAc
# Summary of the method: as §1
# [4] = target: GlcNAc(a1-4)Gal(b1-4)GlcNAc
# Summary of the method: as §1
# [5] = target: GlcNAc(a1-4)Gal(b1-4)GlcNAc(b1-3)Gal(b1-4)Glc
# Summary of the method: as §1
# [6] = target: GlcNAc(a1-4)Gal(b1-4)GlcNAc(b1-3)Gal(b1-4)GlcNAc
# Summary of the method: as §1
# [7] = target: GlcNAc(a1-4)Gal(b1-4)GlcNAc(b1-3)Gal(b1-4)GlcNAc(b1-3)Gal(b1-4)GlcNAc
# Summary of the method: as §1
# [8] = target: GlcNAc(a1-4)Gal(b1-4)GlcNAc(b1-3)Gal(b1-4)[Fuc(a1-3)]GlcNAc(b1-3)Gal(b1-4)[Fuc(a1-3)]GlcNAc
# Summary of the method: as §1
# [9] = target: GlcNAc(a1-6)Gal(b1-4)GlcNAc
# Summary of the method: as §1
# [10] = target: GlcNAc(b1-2)Gal(b1-3)GalNAc
# Summary of the method: as §1
# [11] = target: GlcNAc(b1-2)Man(a1-3)[GlcNAc(b1-2)Man(a1-6)]Man(b1-4)GlcNAc(b1-4)GlcNAc
# Summary of the method: as §1
# [12] = target: GlcNAc(b1-2)Man(a1-3)[GlcNAc(b1-2)Man(a1-6)]Man(b1-4)GlcNAc(b1-4)[Fuc(a1-6)]GlcNAc
# Summary of the method: as §1
# [13] = target: GlcNAc(b1-2)Man(a1-3)[GlcNAc(b1-4)][GlcNAc(b1-2)Man(a1-6)]Man(b1-4)GlcNAc(b1-4)GlcNAc
# Summary of the method: as §1
# [14] = target: GlcNAc(b1-2)Man(a1-3)[GlcNAc(b1-4)][GlcNAc(b1-2)Man(a1-6)]Man(b1-4)GlcNAc(b1-4)[Fuc(a1-6)]GlcNAc
# Summary of the method: as §1
# [15] = target: GlcNAc(b1-2)[GlcNAc(b1-4)]Man(a1-3)[GlcNAc(b1-2)Man(a1-6)]Man(b1-4)GlcNAc(b1-4)GlcNAc
# Summary of the method: as §1
# [16] = target: GlcNAc(b1-2)[GlcNAc(b1-4)]Man(a1-3)[GlcNAc(b1-4)][GlcNAc(b1-2)Man(a1-6)]Man(b1-4)GlcNAc(b1-4)GlcNAc
# Summary of the method: as §1
# [17] = target: GlcNAc(b1-2)[GlcNAc(b1-4)]Man(a1-3)[GlcNAc(b1-4)][GlcNAc(b1-2)[GlcNAc(b1-6)]Man(a1-6)]Man(b1-4)GlcNAc(b1-4)GlcNAc
# Summary of the method: as §1
# [18] = target: GlcNAc(b1-2)[GlcNAc(b1-4)]Man(a1-3)[GlcNAc(b1-4)][GlcNAc(b1-2)[GlcNAc(b1-6)]Man(a1-6)]Man(b1-4)GlcNAc(b1-4)[Fuc(a1-6)]GlcNAc
# Summary of the method: as §1
# [19] = target: GlcNAc(b1-2)[GlcNAc(b1-6)]Man(a1-6)[GlcNAc(b1-2)Man(a1-3)]Man(b1-4)GlcNAc(b1-4)GlcNAc
# Summary of the method: as §1
# [20] = target: GlcNAc(b1-2)[GlcNAc(b1-6)]Man(a1-6)[GlcNAc(b1-2)Man(a1-3)]Man(b1-4)GlcNAc(b1-4)[Fuc(a1-6)]GlcNAc
# Summary of the method: as §1
# [21] = target: GlcNAc(b1-2)[GlcNAc(b1-6)]Man(a1-6)[GlcNAc(b1-4)][GlcNAc(b1-2)Man(a1-3)]Man(b1-4)GlcNAc(b1-4)GlcNAc
# Summary of the method: as §1
# GlcNAc(b1-3)Fuc = target: GlcNAc(b1-3)Fuc
# Summary of the method: as §1
# GlcNAc(b1-3)Gal = target: GlcNAc(b1-3)Gal
# Summary of the method: as §1
# [22] = target: GlcNAc(b1-3)Gal(b1-3)GalNAc
# Summary of the method: as §1
# GlcNAc(b1-3)Gal(b1-4)Glc = target: GlcNAc(b1-3)Gal(b1-4)Glc
# Summary of the method: as §1
# [23] = target: GlcNAc(b1-3)Gal(b1-4)GlcNAc
# Summary of the method: as §1
# [24] = target: GlcNAc(b1-3)Gal(b1-4)GlcNAc(b1-2)Man(a1-3)[GlcNAc(b1-3)Gal(b1-4)GlcNAc(b1-2)Man(a1-6)]Man(b1-4)GlcNAc(b1-4)GlcNAc
# Summary of the method: as §1
# [25] = target: GlcNAc(b1-3)Gal(b1-4)GlcNAc(b1-2)Man(a1-3)[GlcNAc(b1-3)Gal(b1-4)GlcNAc(b1-2)Man(a1-6)]Man(b1-4)GlcNAc(b1-4)[Fuc(a1-6)]GlcNAc
# Summary of the method: as §1
# [26] = target: GlcNAc(b1-3)Gal(b1-4)GlcNAc(b1-2)[GlcNAc(b1-3)Gal(b1-4)GlcNAc(b1-6)]Man(a1-6)[GlcNAc(b1-3)Gal(b1-4)GlcNAc(b1-2)Man(a1-3)]Man(b1-4)GlcNAc(b1-4)GlcNAc
# Summary of the method: as §1
# [27] = target: GlcNAc(b1-3)Gal(b1-4)GlcNAc(b1-3)Gal(b1-4)GlcNAc
# Summary of the method: as §1
# [28] = target: GlcNAc(b1-3)Gal(b1-4)GlcNAc(b1-3)Gal(b1-4)GlcNAc(b1-2)Man(a1-3)[GlcNAc(b1-3)Gal(b1-4)GlcNAc(b1-3)Gal(b1-4)GlcNAc(b1-2)Man(a1-6)]Man(b1-4)GlcNAc(b1-4)GlcNAc
# Summary of the method: as §1
# [29] = target: GlcNAc(b1-3)Gal(b1-4)GlcNAc(b1-3)Gal(b1-4)GlcNAc(b1-2)Man(a1-3)[GlcNAc(b1-3)Gal(b1-4)GlcNAc(b1-3)Gal(b1-4)GlcNAc(b1-2)Man(a1-6)]Man(b1-4)GlcNAc(b1-4)[Fuc(a1-6)]GlcNAc
# Summary of the method: as §1
# [30] = target: GlcNAc(b1-3)Gal(b1-4)GlcNAc(b1-3)Gal(b1-4)GlcNAc(b1-2)[GlcNAc(b1-3)Gal(b1-4)GlcNAc(b1-3)Gal(b1-4)GlcNAc(b1-6)]Man(a1-6)[GlcNAc(b1-3)Gal(b1-4)GlcNAc(b1-3)Gal(b1-4)GlcNAc(b1-2)Man(a1-3)]Man(b1-4)GlcNAc(b1-4)[Fuc(a1-6)]GlcNAc
# Summary of the method: as §1
# [31] = target: GlcNAc(b1-3)Gal(b1-4)GlcNAc(b1-3)Gal(b1-4)GlcNAc(b1-3)Gal(b1-4)GlcNAc(b1-2)Man(a1-3)[GlcNAc(b1-3)Gal(b1-4)GlcNAc(b1-3)Gal(b1-4)GlcNAc(b1-3)Gal(b1-4)GlcNAc(b1-2)Man(a1-6)]Man(b1-4)GlcNAc(b1-4)GlcNAc
# Summary of the method: as §1
# [32] = target: GlcNAc(b1-3)Gal(b1-4)GlcNAc(b1-3)Gal(b1-4)GlcNAc(b1-3)Gal(b1-4)GlcNAc(b1-2)Man(a1-3)[GlcNAc(b1-3)Gal(b1-4)GlcNAc(b1-3)Gal(b1-4)GlcNAc(b1-3)Gal(b1-4)GlcNAc(b1-2)Man(a1-6)]Man(b1-4)GlcNAc(b1-4)[Fuc(a1-6)]GlcNAc
# Summary of the method: as §1
# [33] = target: GlcNAc(b1-3)Gal(b1-4)GlcNAc(b1-3)Gal(b1-4)GlcNAc(b1-3)Gal(b1-4)GlcNAc(b1-2)[GlcNAc(b1-3)Gal(b1-4)GlcNAc(b1-3)Gal(b1-4)GlcNAc(b1-3)Gal(b1-4)GlcNAc(b1-6)]Man(a1-6)[GlcNAc(b1-3)Gal(b1-4)GlcNAc(b1-3)Gal(b1-4)GlcNAc(b1-3)Gal(b1-4)GlcNAc(b1-2)Man(a1-3)]Man(b1-4)GlcNAc(b1-4)[Fuc(a1-6)]GlcNAc
# Summary of the method: as §1
# [34] = target: GlcNAc(b1-3)Gal(b1-4)GlcNAc(b1-3)Gal(b1-4)GlcNAc(b1-3)Gal(b1-4)GlcNAc(b1-3)Gal(b1-4)GlcNAc(b1-2)Man(a1-3)[GlcNAc(b1-3)Gal(b1-4)GlcNAc(b1-3)Gal(b1-4)GlcNAc(b1-3)Gal(b1-4)GlcNAc(b1-3)Gal(b1-4)GlcNAc(b1-2)Man(a1-6)]Man(b1-4)GlcNAc(b1-4)GlcNAc
# Summary of the method: as §1
# [35] = target: GlcNAc(b1-3)Gal(b1-4)GlcNAc(b1-3)Gal(b1-4)GlcNAc(b1-3)Gal(b1-4)GlcNAc(b1-3)Gal(b1-4)GlcNAc(b1-2)Man(a1-3)[GlcNAc(b1-3)Gal(b1-4)GlcNAc(b1-3)Gal(b1-4)GlcNAc(b1-3)Gal(b1-4)GlcNAc(b1-3)Gal(b1-4)GlcNAc(b1-2)Man(a1-6)]Man(b1-4)GlcNAc(b1-4)[Fuc(a1-6)]GlcNAc
# Summary of the method: as §1
binder,measurement,setting,value
"Erv46-EDTA (Saccharomyces cerevisiae), P39727 (protein) MKFLVNVALVFMVVYISYIYAAAPEHHHHHHDYDIPTTENLYFQGAMDSVVTRPQLVVDRDRHAKLELNMDVTFPSMPCDLVNLDIMDDSGEMQLDILDAGFTMSRLNSEGRPVGDATELHVGGNGDGTAPVNNDPNYCGPCYGAKDQSQNENLAQEEKVCCQDCDAVRSAYLEAGWAFFDGKNIEQCEREGYVSKINEHLNEGCRIKGSAQINRIQGNLHFAPGKPYQNAYGHFHDTSLYDKTSNLNFNHIINHLSFGKPIQSHSKLLGNDKRHGGAVVATSPLDGRQVFPDRNTHFHQFSYFAKIVPTRYEYLDNVVIETAQFSATFHSRPLAGGRDKDHPNTLHVRGGIPGMFVFFEMSPLKVINKEQ",glycan array binding signal (z-score),[1],-0.01
same,glycan array binding signal (z-score),[2],0.016
same,glycan array binding signal (z-score),[3],-0.091
same,glycan array binding signal (z-score),[4],0.485
same,glycan array binding signal (z-score),[5],-0.465
same,glycan array binding signal (z-score),[6],-0.121
same,glycan array binding signal (z-score),[7],0.219
same,glycan array binding signal (z-score),[8],1.69
same,glycan array binding signal (z-score),[9],-0.3
same,glycan array binding signal (z-score),[10],0.093
same,glycan array binding signal (z-score),[11],-0.215
same,glycan array binding signal (z-score),[12],6.37
same,glycan array binding signal (z-score),[13],-0.327
same,glycan array binding signal (z-score),[14],-0.098
same,glycan array binding signal (z-score),[15],-0.492
same,glycan array binding signal (z-score),[16],0.02
same,glycan array binding signal (z-score),[17],-1.25
same,glycan array binding signal (z-score),[18],-0.418
same,glycan array binding signal (z-score),[19],-0.35
same,glycan array binding signal (z-score),[20],1.14
same,glycan array binding signal (z-score),[21],-0.277
same,glycan array binding signal (z-score),GlcNAc(b1-3)Fuc,-0.223
same,glycan array binding signal (z-score),GlcNAc(b1-3)Gal,-0.088
same,glycan array binding signal (z-score),[22],-0.149
same,glycan array binding signal (z-score),GlcNAc(b1-3)Gal(b1-4)Glc,-0.188
same,glycan array binding signal (z-score),[23],-0.67
same,glycan array binding signal (z-score),[24],-0.344
same,glycan array binding signal (z-score),[25],-0.047
same,glycan array binding signal (z-score),[26],2.9
same,glycan array binding signal (z-score),[27],-0.691
same,glycan array binding signal (z-score),[28],3.36
same,glycan array binding signal (z-score),[29],1.34
same,glycan array binding signal (z-score),[30],2.19
same,glycan array binding signal (z-score),[31],0.182
same,glycan array binding signal (z-score),[32],1.22
same,glycan array binding signal (z-score),[33],2.18
same,glycan array binding signal (z-score),[34],0.573
same,glycan array binding signal (z-score),[35],1.29

# Shown bar-delimited: entries from further up.
binder | measurement | setting | value
Erv46-EDTA (Saccharomyces cerevisiae), P39727 (protein) MKFLVNVALVFMVVYISYIYAAAPEHHHHHHDYDIPTTENLYFQGAMDSVVTRPQLVVDRDRHAKLELNMDVTFPSMPCDLVNLDIMDDSGEMQLDILDAGFTMSRLNSEGRPVGDATELHVGGNGDGTAPVNNDPNYCGPCYGAKDQSQNENLAQEEKVCCQDCDAVRSAYLEAGWAFFDGKNIEQCEREGYVSKINEHLNEGCRIKGSAQINRIQGNLHFAPGKPYQNAYGHFHDTSLYDKTSNLNFNHIINHLSFGKPIQSHSKLLGNDKRHGGAVVATSPLDGRQVFPDRNTHFHQFSYFAKIVPTRYEYLDNVVIETAQFSATFHSRPLAGGRDKDHPNTLHVRGGIPGMFVFFEMSPLKVINKEQ | glycan array binding signal (z-score) | [21] | -0.277
same | glycan array binding signal (z-score) | [26] | 2.9
same | glycan array binding signal (z-score) | [28] | 3.36
